Here are results for 1 substance from article PMC3837015.

Protein sequences, listed by entry. Tags and fused reporters are not part of them.
UniProt Q13547: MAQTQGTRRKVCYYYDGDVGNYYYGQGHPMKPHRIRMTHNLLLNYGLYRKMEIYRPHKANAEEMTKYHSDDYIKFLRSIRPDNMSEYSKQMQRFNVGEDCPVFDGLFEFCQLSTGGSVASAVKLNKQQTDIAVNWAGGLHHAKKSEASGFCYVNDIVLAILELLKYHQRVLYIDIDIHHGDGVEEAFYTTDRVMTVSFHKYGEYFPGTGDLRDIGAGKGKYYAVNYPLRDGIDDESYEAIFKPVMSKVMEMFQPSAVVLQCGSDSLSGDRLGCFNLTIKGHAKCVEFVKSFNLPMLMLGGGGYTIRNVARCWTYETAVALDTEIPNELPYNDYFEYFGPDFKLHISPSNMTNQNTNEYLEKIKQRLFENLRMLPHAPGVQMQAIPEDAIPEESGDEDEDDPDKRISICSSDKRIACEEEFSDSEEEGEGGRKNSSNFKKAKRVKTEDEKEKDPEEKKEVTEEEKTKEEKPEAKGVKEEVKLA

For test [1], the target named is T1, BiFC maspin^D346E YC (human) (UniProt P36952).
T1 sequence: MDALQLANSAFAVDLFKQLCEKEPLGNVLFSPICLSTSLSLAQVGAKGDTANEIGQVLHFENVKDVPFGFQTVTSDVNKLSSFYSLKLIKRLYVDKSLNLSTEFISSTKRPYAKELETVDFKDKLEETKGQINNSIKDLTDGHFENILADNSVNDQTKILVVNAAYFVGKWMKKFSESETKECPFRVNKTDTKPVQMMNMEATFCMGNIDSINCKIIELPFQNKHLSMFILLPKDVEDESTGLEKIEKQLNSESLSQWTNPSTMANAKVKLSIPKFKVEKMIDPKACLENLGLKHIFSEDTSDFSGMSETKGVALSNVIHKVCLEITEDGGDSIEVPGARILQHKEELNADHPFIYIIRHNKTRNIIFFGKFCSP
The experiment in a line: split reporter; BiFC with YFP fragments: maspin-YC and HDAC1-YN co-expressed by double transient transfection in live PC3 and DU145 cells; fluorescent complexes matured 24 hrs at 30°C before live cell imaging.

For test [2], the target named is T2, BiFC maspin^WT YC (maspin-YC fusion protein) (human) (UniProt P36952).
T2 sequence: T1 sequence with E346D
Described as above.

Where a chain is given by its changes, count along the chain named. Results are given in words; binding and its absence hold for the method and conditions named. In cells and extracts the contact can be indirect. Some binding calls cover weakened binding; strength is not graded here. For some assays here: Where a sequence is shown, tags or fusion partners need not be part of it.

Turning to “BiFC HDAC1YN (HDAC1-YN fusion protein) (from UniProt Q13547 1-482) (enzyme)”, the binding result in test [1] and in test [2] was “binds” each time.
